Results from PubChem BioAssay (NCATS).
For some assays here: A note “side channel” means that the fit belongs to a control or component signal, not to the main read-out. Activity calls are given as the source filed them. Unless noted, calls follow the shape of the full dose curve.

Sequences of proteins named here, by UniProt entry; tags and fusion partners are left off. A change or cut given only in a name is not applied to a line headed by its entry.
UniProt P03372, whole entry, looked up: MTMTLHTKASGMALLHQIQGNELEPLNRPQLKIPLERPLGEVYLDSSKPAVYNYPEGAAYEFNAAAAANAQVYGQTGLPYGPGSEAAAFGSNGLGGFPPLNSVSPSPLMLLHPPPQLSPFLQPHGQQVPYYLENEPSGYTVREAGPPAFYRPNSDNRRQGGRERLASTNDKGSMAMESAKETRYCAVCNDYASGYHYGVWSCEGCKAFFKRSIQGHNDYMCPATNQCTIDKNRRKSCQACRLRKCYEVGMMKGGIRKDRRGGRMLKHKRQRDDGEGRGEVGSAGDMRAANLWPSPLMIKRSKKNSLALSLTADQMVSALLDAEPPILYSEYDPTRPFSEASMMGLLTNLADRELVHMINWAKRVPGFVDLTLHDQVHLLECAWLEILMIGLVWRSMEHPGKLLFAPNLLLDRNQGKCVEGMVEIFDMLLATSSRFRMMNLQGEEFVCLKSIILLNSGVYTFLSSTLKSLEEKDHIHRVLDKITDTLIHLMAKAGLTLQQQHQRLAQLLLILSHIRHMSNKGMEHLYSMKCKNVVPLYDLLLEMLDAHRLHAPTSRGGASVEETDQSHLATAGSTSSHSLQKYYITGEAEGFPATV
UniProt P19793: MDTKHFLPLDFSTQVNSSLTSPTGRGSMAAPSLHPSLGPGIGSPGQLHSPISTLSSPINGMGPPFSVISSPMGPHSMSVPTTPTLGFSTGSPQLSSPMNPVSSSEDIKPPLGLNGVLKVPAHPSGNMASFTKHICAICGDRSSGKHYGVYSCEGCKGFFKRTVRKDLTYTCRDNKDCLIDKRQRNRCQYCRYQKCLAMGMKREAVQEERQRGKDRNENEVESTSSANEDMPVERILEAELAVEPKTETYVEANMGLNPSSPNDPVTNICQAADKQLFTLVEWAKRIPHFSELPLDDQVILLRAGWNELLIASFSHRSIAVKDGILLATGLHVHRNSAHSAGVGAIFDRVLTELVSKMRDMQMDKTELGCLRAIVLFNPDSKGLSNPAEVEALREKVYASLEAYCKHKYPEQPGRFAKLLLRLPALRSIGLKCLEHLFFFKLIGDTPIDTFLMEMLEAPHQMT
UniProt P10828: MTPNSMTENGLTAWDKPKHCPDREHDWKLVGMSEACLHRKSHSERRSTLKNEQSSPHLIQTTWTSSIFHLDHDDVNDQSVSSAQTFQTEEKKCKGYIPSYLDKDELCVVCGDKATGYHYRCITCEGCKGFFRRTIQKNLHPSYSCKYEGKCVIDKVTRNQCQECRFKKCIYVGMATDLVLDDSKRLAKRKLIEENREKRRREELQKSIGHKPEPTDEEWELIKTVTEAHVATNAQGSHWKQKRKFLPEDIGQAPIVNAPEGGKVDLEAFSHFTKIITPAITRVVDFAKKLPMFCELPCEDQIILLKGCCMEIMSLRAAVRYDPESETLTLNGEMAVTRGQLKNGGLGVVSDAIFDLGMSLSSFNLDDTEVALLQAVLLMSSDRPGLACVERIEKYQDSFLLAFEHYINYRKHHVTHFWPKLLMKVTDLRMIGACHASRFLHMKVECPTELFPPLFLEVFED
UniProt P01375, whole entry, looked up: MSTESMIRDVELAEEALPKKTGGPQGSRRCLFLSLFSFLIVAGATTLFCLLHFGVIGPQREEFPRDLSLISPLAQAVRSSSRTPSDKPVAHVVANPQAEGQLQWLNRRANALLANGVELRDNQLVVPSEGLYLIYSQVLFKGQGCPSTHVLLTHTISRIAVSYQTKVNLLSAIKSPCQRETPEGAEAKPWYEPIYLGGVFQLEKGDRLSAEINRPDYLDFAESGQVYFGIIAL

Tests used:
[1] = Cellular Toxicity (caspase-3) Renal Proximal Tubule (AID 667; active = well fitted curve in the direction sought with a large enough effect; inconclusive = small, poorly fitted or top-dose-only effect, or another doubt; inactive = no such curve, though single readings can be large; an effect the other way counts as inactive or inconclusive;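 also: cells exposed to compound for 16 hours at 37 °C before detection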); conditions: renal proximal tubule cells, primary cells freshly taken from rat; Potency: caspase-3 activation; caspase-3 activation: at 91.7 µM (top of the series), solvent-only wells 0%, staurosporine 100%
Outline: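 Luminescent caspase 3/7 signal from peptide-aminoluciferin cleavage measures apoptosis in freshly isolated rat kidney proximal tubule cells after 16 h compound exposure. Concentration-response data are normalized to DMSO and 10 uM staurosporine, and AC50 values come from Hill equation fits.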

[2] = MultiTox-Fluor Cytotoxicity Assay - LYMP1-002 - Live Cells (AID 955; active = well fitted curve in the direction sought with a large enough effect; inconclusive = small, poorly fitted or top-dose-only effect, or another doubt; inactive = no such curve, though single readings can be large; an effect the other way counts as inactive or inconclusive); conditions: LYMP1-002 lymphoblastoid live-cell protease fluorescence viability
Outline: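 Read-out is live-cell protease activity (cell-permeant GF-AFC substrate, fluorescence Ex/Em=405/510), where a decrease indicates acute toxicity. Human lymphoblastoid cells were treated 16 hours at 37 C in a concentration series, and AC50 values came from standard Hill modelling.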

[3] = Cell Viability - LYMP2-003 (AID 965; active = well fitted curve in the direction sought with a large enough effect; inconclusive = small, poorly fitted or top-dose-only effect, or another doubt; inactive = no such curve, though single readings can be large; an effect the other way counts as inactive or inconclusive;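 also: cells exposed to compounds for 24 h before reading; nearly all actives have a fitted effect of over 50% in size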); conditions: LYMP2-003 lymphoblastoid cell viability
Outline: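 CellTiter-Glo luminescence (cellular ATP) after 24 h compound exposure at 37 C in complete medium; 2500 cells/well, 5 h settling beforehand. Concentration-response fitted to standard Hill equation for AC50. Tetraoctylammonium bromide served as positive control.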

[4] = Cell Viability - LYMP2-005 (AID 967; active = well fitted curve in the direction sought with a large enough effect; inconclusive = small, poorly fitted or top-dose-only effect, or another doubt; inactive = no such curve, though single readings can be large; an effect the other way counts as inactive or inconclusive); conditions: LYMP2-005 lymphoblastoid cell viability
Outline: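 Steps: seed 2500 LYMP2-005 cells/well, incubate 5 h at 37 C, add compound, incubate 24 h at 37 C, add CellTiter-Glo, wait 30 min at RT, read luminescence. Concentration-response data fitted to Hill equation for AC50.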

[5] = biological target: Estrogen receptor (Homo sapiens) (UniProt P03372); experiment: qHTS assay for small molecule antagonists of estrogen receptor alpha signaling (AID 588513; active = well fitted curve in the direction sought with a large enough effect in the signal ratio, with a control signal flat, not every such curve was filed as active; inconclusive = small, poorly fitted or top-dose-only effect, or effect the other way, or a change in a side signal; inactive = no such curve, though single readings can be large or run the other way; the % refers to the signal ratio); conditions: ER-alpha-UAS-bla HEK293, beta-lactamase ratio, antagonist mode; series mostly up to 76.9 µM
Outline: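 Beta-lactamase reporter, antagonist mode, HEK 293 GripTite cells; 0.5nM E2 stimulus, 18 h, 37 C; CCF4 dye 2 h RT; fluorescence. IC50 and efficacy from Hill fits, normalized to E2 and DMSO.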

[6] = biological target: Estrogen receptor (Homo sapiens) (UniProt P03372); experiment: qHTS assay for small molecule agonists of estrogen receptor alpha signaling (AID 588514); also: nearly all actives have a fitted effect of over 70% in size
Outline: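 Cells were plated at 5000/well, incubated 4 hrs at 37 C, dosed with compound titration series, incubated 18 hrs at 37 C, loaded with CCF4 dye for 2 hrs at RT, then fluorescence was read.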

[7] = biological target: Glucocorticoid receptor (Homo sapiens) (UniProt P04150); experiment: qHTS assay for small molecule agonists of glucocorticoid receptor signaling (AID 588532; active = well fitted curve in the direction sought with a large enough effect in the signal ratio, with a control signal flat; inconclusive = small, poorly fitted or top-dose-only effect, or a change in a side signal; inactive = no such curve, though single readings can be large or run the other way; the % refers to the signal ratio); conditions: HeLa MMTV-bla, beta-lactamase ratio, agonist, 18 h; activation: hits give high values, percent of dexamethasone control, DMSO zero
Outline: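 Agonist-mode qHTS: GRE-driven beta-lactamase in HeLa cells exposed 18 h to titrated compounds (up to 92 uM), then CCF4 ratio read after 2 h at RT; Hill-fitted EC50, efficacy relative to 0.1 uM dexamethasone.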

[8] = biological target: Peroxisome proliferator-activated receptor gamma (Homo sapiens) (UniProt P37231); experiment: qHTS assay for small molecule agonists of peroxisome proliferator-activated receptor gamma signaling (AID 588536; active = well fitted curve in the direction sought with a large enough effect in the signal ratio, with a control signal flat, not every such curve was filed as active; inconclusive = small, poorly fitted or top-dose-only effect, or effect the other way, or a change in a side signal; inactive = no such curve, though single readings can be large or run the other way; the % refers to the signal ratio); conditions: HEK293 PPARg-UAS-bla, beta-lactamase ratio, 16 h; activation: at 76.7 µM (top of the series), percent of rosiglitazone response, DMSO as zero
Outline: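 Test agents, titrated, stimulated HEK293 UAS-bla cells overnight (16 h, 37 C). Substrate CCF4 was then added for two hours at room temperature before fluorescence reading.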

[9] = biological target: Vitamin D3 receptor (Homo sapiens) (UniProt P11473); experiment: qHTS assay for small molecule antagonists of vitamin D receptor signaling (AID 588541); conditions: HEK293T VDR-UAS-bla, beta-lactamase ratio, antagonist mode; series mostly up to 76.7 µM
[10] = biological target: Vitamin D3 receptor (Homo sapiens) (UniProt P11473); experiment: qHTS assay for small molecule agonists of vitamin D receptor signaling (AID 588543); conditions: HEK293T VDR-UAS-bla, beta-lactamase ratio, 16 h; activation: at 76.8 µM (top of the series)
Outline: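 β-lactamase reporter, VDR-UAS-bla HEK293T, agonist mode. Cells plated 5 h at 37 °C, compound titration 16 h at 37 °C, CCF4 dye 2 h RT, ratio 460/530 nm. Hill fit → EC50, efficacy vs 50 nM 1α,25-(OH)2D3.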

[11] = biological target: Retinoic acid receptor RXR-alpha (Homo sapiens) (UniProt P19793); experiment: qHTS assay for small molecule agonists of retinoid X receptor alpha signaling (AID 588544); conditions: HEK293T RXRa-UAS-bla, beta-lactamase reporter, 18 h; activation: at 76.7 µM (top of the series)
[12] = biological target: Thyroid hormone receptor beta (Homo sapiens) (UniProt P10828); experiment: qHTS assay for small molecule agonists of thyroid hormone receptor beta signaling (AID 588545); conditions: TR-UAS-bla GripTite HEK 293, beta-lactamase ratio, agonist mode, 18 h; activation: at 76.7 µM, percent of T3 response, DMSO as zero
Outline: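 Agonist activity was read as beta-lactamase CCF4 fluorescence (405 ex, 460/530 em), scaled between DMSO (0%) and 10 nM T3 (100%), then Hill-fitted for EC50 and efficacy. HEK 293 TR-UAS-bla cells in 2% charcoal/dextran FBS medium were exposed 18 h at 37 C.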

[13] = qHTS assay for small molecule activators of the p53 signaling pathway (AID 651743; active = well fitted activation curve with a large enough effect in the signal ratio, not every such curve was filed as active; inconclusive = small, poorly fitted or top-dose-only effect, or a change in a side signal; the % refers to the signal ratio); conditions: HCT-116 p53RE-bla, beta-lactamase FRET ratio, 16 h; activation: hits give high values
Outline: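 Read-out is fluorescence intensity from the LiveBLAzer B/G FRET substrate, added for 2 hours at room temperature after HCT-116 p53RE-bla cells had been incubated with compounds for 16 hours at 37 C.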

[14] = qHTS assay for small molecule activators of the nuclear factor-kappa B (NF-kB) signaling pathway (AID 651749; active = well fitted activation curve with a large enough effect in the signal ratio; inconclusive = small, poorly fitted or top-dose-only effect, or a change in a side signal; the % refers to the signal ratio); conditions: NF-kB-bla ME-180 cells, beta-lactamase FRET ratio, 16 h
Outline: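 Readout: beta-lactamase reporter driven by an NF-kB response element, detected fluorescently as loss of FRET. Cells were the ME-180 line, treated 16 hr at 37C with pin-transferred compound.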

[15] = qHTS assay for small molecule disruptors of the mitochondrial membrane potential - 1 hr assay (AID 651754); conditions: ratio change, negative = depolarisation: at 92.2 µM (top of the series); also: nearly all actives have a fitted effect of over 35% in size
Outline: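 HepG2, 2,000 cells/well, overnight attachment; cpd or DMSO 1 hr, 37C/5% CO2; Mito-MPS dye 30 min, 37C; fluorescence monomer (490/535) and aggregate (540/590).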

[16] = qHTS assay for small molecule disruptors of the mitochondrial membrane potential - 5 hr assay (AID 651755); conditions: JC-1-type ratio dye; series mostly up to 92.2 µM; also: nearly all actives have a fitted effect of over 40% in size
Outline: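 HepG2, 2,000 cells/well, overnight attach; cpd or DMSO 5 hr, 37C/5% CO2; Mito-MPS 30 min 37C; fluor 490/535 + 540/590 nm.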

[17] = biological target: Tumor necrosis factor (Homo sapiens) (UniProt P01375); experiment: qHTS assay to identify small molecules that stimulate Tumor Necrosis Factor-alpha (TNF-alpha) secretion (AID 651757; active = well fitted curve in the direction sought with a large enough effect in the signal ratio; inconclusive = small, poorly fitted or top-dose-only effect, or a change in a side signal; inactive = no such curve, though single readings can be large or run the other way; the % refers to the signal ratio); conditions: Human cells, HTRF 665/615 ratio; series mostly up to 92.2 µM
Outline: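 Read-out is HTRF, a TR-FRET sandwich of cryptate- and XL665-labeled anti-TNF-alpha antibodies detecting cytokine secreted by THP-1 cells. Cells had been incubated with test compounds at 37 C for 17 hrs beforehand.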

[18] = qHTS assay for small molecule agonists of the antioxidant response element (ARE) signaling pathway measured by Nrf2-dependant transcriptional activity (AID 720636; active = well fitted curve in the direction sought with a large enough effect in the repeat runs; inconclusive = weak or mixed curves; inactive = no such curve, though single readings can be large; an effect the other way counts as inactive or inconclusive)
Outline: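 Quantitative HTS format in HepG2 cells stably expressing an ARE-luciferase reporter; 16 hr compound treatment at 37 C, luciferase signal detected with ONE-Glo.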

[19] = qHTS assay for small molecule antagonists of the retinoid-related orphan receptor gamma (ROR-gamma) signaling pathway - cell viability counter screen (AID 720652; active = well fitted curve in the direction sought with a large enough effect in the repeat runs; inconclusive = weak or mixed curves; inactive = no such curve, though single readings can be large; an effect the other way counts as inactive or inconclusive;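 also: compound exposure lasted 16 hr before ATP read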); conditions: RORgamma reporter cell line viability counter screen
Outline: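 Luminescence from CellTiter-Glo after 30 min at room temperature reported cellular ATP as the cytotoxicity measure. Cells were the CHO reporter line with doxycycline-induced ROR-gamma expression, exposed to compound for 16 hr at 37 C.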

[20] = qHTS assay for cell viability of HEK293 cells (AID 743288; active = well fitted curve in the direction sought with a large enough effect; inconclusive = small, poorly fitted or top-dose-only effect, or another doubt; inactive = no such curve, though single readings can be large; an effect the other way counts as inactive or inconclusive; also: nearly all actives have a fitted effect of over 50% in size); conditions: ATP luminescence (CellTiter-Glo), 18 h; max response: hits give low values
Outline: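 Environmental chemicals tested in qHTS format against parental HEK293 cells; 18 h treatment, 37 C; read-out ATP luminescence (CellTiter-Glo), 30 min RT development.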

Measured: Potency
Potency is read from the fitted curve at half-maximal effect.

O=C1c2c(O)ccc([N+](=O)[O-])c2C(=O)c2c([N+](=O)[O-])ccc(O)c21
active: [3] 31.6 µM | [4] 39.8 µM | [5] 14.1 µM [inconclusive] | [9] 22.4 µM | [15] 5.31 µM | [16] 3.76 µM | [19] 33.5 µM | [20] 39.8 µM
inconclusive: [1] 31.6 µM [falling, full curve, poor fit] | [2] 25.1 µM [cytotoxic, single point] | [6] 8.91 µM [activator, partial curve] | [7] 31.6 µM [side channel, falling, partial curve, poor fit] | [8] 28.2 µM [inhibitor, single point] | [10] 89.1 µM [side channel, falling, single point] | [11] 8.91 µM [fluorescent, side channel, full curve, poor fit] | [12] 44.7 µM [side channel, falling, partial curve, poor fit] | [13] 28.2 µM [side channel, falling, full curve, poor fit] | [14] 17.8 µM [side channel, falling, full curve] | [17] 3.35 µM [rising, full curve, poor fit] | [18] 26.6 µM [activator, partial curve, poor fit]
